Source: publication PMC3868556

System: T1, ComPsub (Neisseria subflava)
T1 sequence (looked up, limits assumed): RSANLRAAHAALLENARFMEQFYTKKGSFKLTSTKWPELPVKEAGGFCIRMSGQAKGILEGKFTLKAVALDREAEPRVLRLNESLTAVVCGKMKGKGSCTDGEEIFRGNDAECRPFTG
Assay: competition with a labelled probe
Details: EMSA, 22.5-180 pmol competitor against N16, competed better than SDU; EMSA: native 10% acrylamide, LightShift kit, buffer not stated; recombinant protein; protein details: MBP fusion (pMAL-p2X), MBP removed with factor Xa

“TGACCAGGCCGTCTGAACAAAC (double strand) [DUSvar1 ds primers, unlabelled competitor]”: binds.

Construct, isoform or probe ends are uncertain for at least one entry. Tags and fusion partners may be left off the protein sequences shown.
